Measured values taken from the supplement of paper PMC11006884.
This list holds what a sample rich in targets with a hit left over. This is a noisy data set. The list shows a part of the results, in another mix than the full data.

The chains behind the UniProt entries cited, without tags or fusion partners. Where a name states a change or a piece, a line headed by the entry shows the natural chain unless it says otherwise.
UniProt Q9UK39: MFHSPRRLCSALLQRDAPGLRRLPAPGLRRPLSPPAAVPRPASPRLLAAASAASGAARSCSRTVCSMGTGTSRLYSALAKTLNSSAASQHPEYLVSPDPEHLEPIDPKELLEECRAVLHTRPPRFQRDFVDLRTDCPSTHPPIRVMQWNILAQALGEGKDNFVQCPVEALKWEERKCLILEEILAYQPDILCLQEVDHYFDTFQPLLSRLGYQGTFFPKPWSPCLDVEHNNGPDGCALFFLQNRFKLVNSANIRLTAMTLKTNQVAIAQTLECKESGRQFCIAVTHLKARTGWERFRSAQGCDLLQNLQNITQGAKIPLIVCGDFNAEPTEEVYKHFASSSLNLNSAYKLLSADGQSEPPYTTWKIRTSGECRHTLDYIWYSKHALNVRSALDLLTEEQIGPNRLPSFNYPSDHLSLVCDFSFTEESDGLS
UniProt Q9ULT8: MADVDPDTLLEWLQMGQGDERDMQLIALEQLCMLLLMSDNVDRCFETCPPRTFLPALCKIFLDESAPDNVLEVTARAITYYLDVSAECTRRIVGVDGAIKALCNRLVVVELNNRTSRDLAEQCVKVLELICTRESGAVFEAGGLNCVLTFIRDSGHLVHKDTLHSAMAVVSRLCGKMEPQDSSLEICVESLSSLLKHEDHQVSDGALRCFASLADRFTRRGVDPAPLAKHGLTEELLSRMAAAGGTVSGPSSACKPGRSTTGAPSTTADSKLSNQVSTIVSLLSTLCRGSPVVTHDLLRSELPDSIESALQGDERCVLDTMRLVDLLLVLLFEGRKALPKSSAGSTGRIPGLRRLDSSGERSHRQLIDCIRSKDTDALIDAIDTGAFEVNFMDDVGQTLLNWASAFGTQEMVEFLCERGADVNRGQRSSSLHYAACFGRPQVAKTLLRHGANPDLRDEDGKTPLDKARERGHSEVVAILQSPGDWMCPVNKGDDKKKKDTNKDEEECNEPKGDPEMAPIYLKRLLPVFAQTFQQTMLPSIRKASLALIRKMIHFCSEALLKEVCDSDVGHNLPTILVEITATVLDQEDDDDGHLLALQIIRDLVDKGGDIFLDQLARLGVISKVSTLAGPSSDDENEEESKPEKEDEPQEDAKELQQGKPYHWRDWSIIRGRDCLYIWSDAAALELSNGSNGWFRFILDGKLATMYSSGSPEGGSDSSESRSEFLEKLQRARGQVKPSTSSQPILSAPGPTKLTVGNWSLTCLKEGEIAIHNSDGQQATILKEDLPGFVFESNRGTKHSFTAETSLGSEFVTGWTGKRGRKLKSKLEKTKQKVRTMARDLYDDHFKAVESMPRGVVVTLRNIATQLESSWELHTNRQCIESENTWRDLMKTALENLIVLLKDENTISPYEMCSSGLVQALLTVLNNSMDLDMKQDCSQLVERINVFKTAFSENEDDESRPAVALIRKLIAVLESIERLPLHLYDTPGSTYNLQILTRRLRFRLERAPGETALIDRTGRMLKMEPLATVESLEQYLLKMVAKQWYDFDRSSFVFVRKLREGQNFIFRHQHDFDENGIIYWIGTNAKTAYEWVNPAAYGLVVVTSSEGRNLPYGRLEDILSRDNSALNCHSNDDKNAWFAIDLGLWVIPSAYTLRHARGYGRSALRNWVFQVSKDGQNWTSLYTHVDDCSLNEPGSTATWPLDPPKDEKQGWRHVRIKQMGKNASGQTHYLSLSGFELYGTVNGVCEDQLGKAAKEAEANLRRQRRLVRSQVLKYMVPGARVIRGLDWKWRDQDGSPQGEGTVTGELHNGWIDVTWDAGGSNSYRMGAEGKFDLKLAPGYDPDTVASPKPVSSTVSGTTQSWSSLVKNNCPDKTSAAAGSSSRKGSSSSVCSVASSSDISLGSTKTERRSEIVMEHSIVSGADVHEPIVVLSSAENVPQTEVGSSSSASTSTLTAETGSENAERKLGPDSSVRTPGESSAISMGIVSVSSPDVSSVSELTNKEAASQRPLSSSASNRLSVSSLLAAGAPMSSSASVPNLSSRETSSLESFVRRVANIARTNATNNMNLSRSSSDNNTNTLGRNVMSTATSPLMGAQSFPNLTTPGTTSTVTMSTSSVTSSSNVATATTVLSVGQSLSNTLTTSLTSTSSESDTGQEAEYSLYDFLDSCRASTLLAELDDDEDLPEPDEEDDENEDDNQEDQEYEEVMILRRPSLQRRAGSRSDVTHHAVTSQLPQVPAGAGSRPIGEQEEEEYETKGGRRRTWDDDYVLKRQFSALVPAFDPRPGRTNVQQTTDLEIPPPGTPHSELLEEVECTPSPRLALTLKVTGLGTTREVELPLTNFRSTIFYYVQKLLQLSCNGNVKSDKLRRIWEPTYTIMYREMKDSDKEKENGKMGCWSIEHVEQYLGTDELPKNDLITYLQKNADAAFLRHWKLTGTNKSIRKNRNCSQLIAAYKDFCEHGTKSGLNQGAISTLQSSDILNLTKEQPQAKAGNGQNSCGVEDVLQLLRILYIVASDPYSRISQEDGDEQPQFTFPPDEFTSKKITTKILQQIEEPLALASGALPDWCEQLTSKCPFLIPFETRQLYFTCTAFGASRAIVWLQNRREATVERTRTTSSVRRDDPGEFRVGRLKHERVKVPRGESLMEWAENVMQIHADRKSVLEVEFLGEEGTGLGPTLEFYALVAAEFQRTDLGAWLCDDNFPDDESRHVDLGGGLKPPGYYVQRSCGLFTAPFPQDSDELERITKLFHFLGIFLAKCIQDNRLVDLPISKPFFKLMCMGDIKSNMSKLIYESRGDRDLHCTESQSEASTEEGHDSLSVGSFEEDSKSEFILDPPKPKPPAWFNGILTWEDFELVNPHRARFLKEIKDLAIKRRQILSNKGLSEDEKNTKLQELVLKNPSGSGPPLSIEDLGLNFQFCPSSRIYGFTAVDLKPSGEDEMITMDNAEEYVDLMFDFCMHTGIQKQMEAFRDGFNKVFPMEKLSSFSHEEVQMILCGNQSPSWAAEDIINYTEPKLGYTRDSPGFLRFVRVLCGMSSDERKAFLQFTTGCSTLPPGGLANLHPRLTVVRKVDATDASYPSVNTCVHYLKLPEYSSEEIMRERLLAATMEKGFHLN
UniProt Q9ULK4: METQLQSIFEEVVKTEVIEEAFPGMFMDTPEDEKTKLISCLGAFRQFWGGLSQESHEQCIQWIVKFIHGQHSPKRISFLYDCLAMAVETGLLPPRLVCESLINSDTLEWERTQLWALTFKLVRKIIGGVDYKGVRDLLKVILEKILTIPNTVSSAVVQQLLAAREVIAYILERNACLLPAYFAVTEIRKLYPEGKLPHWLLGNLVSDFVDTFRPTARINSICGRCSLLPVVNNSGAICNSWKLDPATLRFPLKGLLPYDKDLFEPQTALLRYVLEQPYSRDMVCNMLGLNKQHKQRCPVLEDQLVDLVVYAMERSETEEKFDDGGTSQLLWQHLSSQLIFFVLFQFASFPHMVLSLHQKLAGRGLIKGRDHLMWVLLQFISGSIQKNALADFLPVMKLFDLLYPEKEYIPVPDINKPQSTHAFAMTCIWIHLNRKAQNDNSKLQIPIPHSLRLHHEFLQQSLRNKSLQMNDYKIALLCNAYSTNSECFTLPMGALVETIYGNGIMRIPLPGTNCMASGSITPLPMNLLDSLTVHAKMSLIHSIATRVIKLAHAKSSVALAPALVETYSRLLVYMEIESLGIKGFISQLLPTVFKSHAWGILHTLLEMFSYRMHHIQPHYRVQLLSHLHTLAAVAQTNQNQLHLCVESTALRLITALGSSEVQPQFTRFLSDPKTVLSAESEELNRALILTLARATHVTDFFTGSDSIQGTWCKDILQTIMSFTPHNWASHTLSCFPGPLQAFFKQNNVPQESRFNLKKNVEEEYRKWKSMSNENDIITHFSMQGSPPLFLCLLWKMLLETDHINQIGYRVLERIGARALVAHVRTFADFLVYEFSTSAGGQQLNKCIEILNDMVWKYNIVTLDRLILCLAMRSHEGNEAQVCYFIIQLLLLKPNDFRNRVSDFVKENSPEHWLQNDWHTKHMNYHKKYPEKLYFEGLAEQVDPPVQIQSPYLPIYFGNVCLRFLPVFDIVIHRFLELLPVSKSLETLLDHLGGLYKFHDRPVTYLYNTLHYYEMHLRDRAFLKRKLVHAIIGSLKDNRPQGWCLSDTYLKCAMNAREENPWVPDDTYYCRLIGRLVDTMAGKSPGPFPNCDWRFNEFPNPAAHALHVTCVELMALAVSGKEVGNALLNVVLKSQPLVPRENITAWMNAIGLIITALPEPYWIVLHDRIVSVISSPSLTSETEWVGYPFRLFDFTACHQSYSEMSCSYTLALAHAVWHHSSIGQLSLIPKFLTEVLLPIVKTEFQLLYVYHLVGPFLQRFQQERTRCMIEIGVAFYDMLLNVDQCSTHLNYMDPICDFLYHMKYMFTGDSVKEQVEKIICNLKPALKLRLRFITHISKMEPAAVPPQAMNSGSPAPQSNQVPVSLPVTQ
UniProt Q9UNM6: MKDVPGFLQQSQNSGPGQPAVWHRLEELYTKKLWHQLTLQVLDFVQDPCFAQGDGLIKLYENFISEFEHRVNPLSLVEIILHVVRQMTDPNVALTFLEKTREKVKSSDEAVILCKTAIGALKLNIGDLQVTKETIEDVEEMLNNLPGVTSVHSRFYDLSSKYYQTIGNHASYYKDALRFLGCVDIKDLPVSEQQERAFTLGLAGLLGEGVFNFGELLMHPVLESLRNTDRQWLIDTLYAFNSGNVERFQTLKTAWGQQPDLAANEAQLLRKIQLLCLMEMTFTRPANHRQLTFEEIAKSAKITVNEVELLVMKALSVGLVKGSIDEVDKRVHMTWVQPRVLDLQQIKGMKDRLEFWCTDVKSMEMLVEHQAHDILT
UniProt Q9UQR0: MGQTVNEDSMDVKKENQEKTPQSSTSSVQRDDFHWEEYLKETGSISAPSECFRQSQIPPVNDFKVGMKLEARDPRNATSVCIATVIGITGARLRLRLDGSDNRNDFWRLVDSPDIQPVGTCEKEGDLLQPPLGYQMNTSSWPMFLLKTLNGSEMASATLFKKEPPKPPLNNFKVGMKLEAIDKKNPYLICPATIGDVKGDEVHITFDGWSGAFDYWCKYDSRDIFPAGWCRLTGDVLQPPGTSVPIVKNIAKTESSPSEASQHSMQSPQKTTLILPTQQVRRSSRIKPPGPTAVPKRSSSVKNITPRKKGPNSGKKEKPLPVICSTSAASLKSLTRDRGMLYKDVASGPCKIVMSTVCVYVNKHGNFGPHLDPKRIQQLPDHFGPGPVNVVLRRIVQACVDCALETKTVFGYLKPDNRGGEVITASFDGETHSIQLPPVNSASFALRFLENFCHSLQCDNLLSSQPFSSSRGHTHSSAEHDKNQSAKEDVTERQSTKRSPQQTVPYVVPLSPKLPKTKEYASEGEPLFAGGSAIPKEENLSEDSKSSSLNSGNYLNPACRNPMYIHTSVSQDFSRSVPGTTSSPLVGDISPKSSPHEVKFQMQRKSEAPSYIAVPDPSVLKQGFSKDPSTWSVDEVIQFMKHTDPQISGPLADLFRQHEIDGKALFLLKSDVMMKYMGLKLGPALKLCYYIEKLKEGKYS
UniProt Q9UJU6: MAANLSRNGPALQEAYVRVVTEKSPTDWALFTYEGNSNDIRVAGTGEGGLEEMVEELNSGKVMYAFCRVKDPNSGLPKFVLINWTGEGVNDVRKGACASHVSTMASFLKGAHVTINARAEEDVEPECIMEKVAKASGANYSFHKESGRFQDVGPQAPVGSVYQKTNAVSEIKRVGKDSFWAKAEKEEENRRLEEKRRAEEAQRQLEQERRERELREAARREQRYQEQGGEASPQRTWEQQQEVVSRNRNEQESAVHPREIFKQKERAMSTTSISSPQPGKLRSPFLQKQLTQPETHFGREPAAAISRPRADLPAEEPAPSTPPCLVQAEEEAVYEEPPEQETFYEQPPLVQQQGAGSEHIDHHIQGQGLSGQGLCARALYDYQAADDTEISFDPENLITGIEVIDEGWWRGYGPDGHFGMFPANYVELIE
UniProt Q9Y2X3: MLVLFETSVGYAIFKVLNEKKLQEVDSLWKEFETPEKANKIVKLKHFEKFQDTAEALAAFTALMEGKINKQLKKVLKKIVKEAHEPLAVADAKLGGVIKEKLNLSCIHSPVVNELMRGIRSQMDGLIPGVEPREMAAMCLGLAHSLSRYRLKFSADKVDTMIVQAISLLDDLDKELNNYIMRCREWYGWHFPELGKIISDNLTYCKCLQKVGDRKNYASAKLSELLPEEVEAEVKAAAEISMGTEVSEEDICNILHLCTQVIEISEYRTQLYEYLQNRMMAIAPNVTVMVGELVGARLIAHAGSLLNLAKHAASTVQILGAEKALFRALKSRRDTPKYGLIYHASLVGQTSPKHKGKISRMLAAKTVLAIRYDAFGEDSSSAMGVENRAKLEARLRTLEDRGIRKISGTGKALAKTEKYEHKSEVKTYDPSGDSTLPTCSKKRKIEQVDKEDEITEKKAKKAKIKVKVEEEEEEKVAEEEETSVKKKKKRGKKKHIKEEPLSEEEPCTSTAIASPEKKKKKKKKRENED

compound: COC(=O)/C=C/c1ccccc1 [methyl cinnamate]; assay: log2 ratio of iodoacetamide-alkyne labeling of the cysteine site, DMSO over compound (competition); higher = stronger covalent engagement of the cysteine by the compound, active = 1 or more; conditions: 500 µM; treatment time 1 h; system: HEK293T cell lysate
How it was run: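 HEK293T lysate (2 mg/mL) was treated with DMSO or electrophile (500 µM, 1 h, ambient temperature), then iodoacetamide alkyne (1 h), clicked to sCIP-TMT reagents, pooled, trypsin-digested overnight at 37 °C, streptavidin-enriched and acid-eluted. Peptides were run on Orbitrap Eclipse LC-MS/MS with FAIMS and quantified in FragPipe. The log2 competition ratio per cysteine is mean control-channel over mean compound-channel reporter intensity. Duplicate channels and three replicates were used, and cysteines quantified in only one replicate were excluded.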

log2 ratio of iodoacetamide-alkyne labeling, inactive:
PRR12 C112 (UniProt Q9ULL5) 0.237
NFU1 C213 (UniProt Q9UMS0) 0.536
UniProt Q9UK39_C302 0.162
NUFIP1 C317 (UniProt Q9UHK0) 0.164
UniProt Q9Y312_C156 0.345
HECTD1 C1368 (UniProt Q9ULT8) 0.515
PLCL2 C90 (UniProt Q9UPR0) 0.123
CHORDC1 C86 (UniProt Q9UHD1) 0.471
PRPF19 C114 (UniProt Q9UMS4) 0.103
RABGAP1 C1026 (UniProt Q9Y3P9) -0.203
HECTD1 C254 (UniProt Q9ULT8) 0.29
UniProt Q9Y224_C19 0.214
MED23 C1069 (UniProt Q9ULK4) 0.152
UniProt Q9Y2L5_C265 0.251
PSMD13 C182 (UniProt Q9UNM6) 0.175
UniProt Q9UK61_C538 -0.057
COG5 C64 (UniProt Q9UP83) 0.278
SCML2 C559 (UniProt Q9UQR0) 0.268
DBNL C127 (UniProt Q9UJU6) 0.189
HECTD1 C2195 (UniProt Q9ULT8) 0.611
GTF3C4 C817 (UniProt Q9UKN8) 0.0649
NOP58 C439 (UniProt Q9Y2X3) 0.172
NOSIP C250 (UniProt Q9Y314) 0.0786
TPX2 C145 (UniProt Q9ULW0) -0.0179
SLC25A13 C565 (UniProt Q9UJS0) 0.018
ACIN1 C1223 (UniProt Q9UKV3) 0.0534
UniProt Q9Y3I0_C193 0.129
UniProt Q9UK61_C429 0.0982
MSRB2 C45 (UniProt Q9Y3D2) -0.0521
EXOC6B C32 (UniProt Q9Y2D4) -0.044
NOP16 C36 (UniProt Q9Y3C1) 0.158
AK6 C53 (UniProt Q9Y3D8) 0.115
DDX20 C98 (UniProt Q9UHI6) 0.249
DCTN4 C30 (UniProt Q9UJW0) -0.227
CPSF3 C655 (UniProt Q9UKF6) 0.25
HERC5 C994 (UniProt Q9UII4) -0.0849
HOOK1 C432 (UniProt Q9UJC3) 0.264

A portion from the list above, for reference:
log2 ratio of iodoacetamide-alkyne labeling, inactive:
PLCL2 C90 (UniProt Q9UPR0) 0.123
CHORDC1 C86 (UniProt Q9UHD1) 0.471
PRPF19 C114 (UniProt Q9UMS4) 0.103
RABGAP1 C1026 (UniProt Q9Y3P9) -0.203
HECTD1 C254 (UniProt Q9ULT8) 0.29
UniProt Q9Y224_C19 0.214
MED23 C1069 (UniProt Q9ULK4) 0.152
UniProt Q9Y2L5_C265 0.251
